From patent publication US7498127
Results are given in words; binding and its absence hold for the method and conditions named. For part of these data: Binding seen in cells or lysates may run through a third protein. Some binding calls cover weakened binding; strength is not graded here. For part of these data: Sequences can lack the tags named with a protein.

Amino acid sequences for entries named in this document (tags omitted). Residues count along the entry.
UniProt Q99075, residues 149-208: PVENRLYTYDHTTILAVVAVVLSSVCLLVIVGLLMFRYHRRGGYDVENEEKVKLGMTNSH

How the values were obtained:
[1] = molecular target: T1, FLAG-tagged wild-type PLZF protein (UniProt Q05516); experiment: GST pull-down on Glutathione Sepharose beads, cell lysate, anti-FLAG immunoblot
T1 sequence (looked up): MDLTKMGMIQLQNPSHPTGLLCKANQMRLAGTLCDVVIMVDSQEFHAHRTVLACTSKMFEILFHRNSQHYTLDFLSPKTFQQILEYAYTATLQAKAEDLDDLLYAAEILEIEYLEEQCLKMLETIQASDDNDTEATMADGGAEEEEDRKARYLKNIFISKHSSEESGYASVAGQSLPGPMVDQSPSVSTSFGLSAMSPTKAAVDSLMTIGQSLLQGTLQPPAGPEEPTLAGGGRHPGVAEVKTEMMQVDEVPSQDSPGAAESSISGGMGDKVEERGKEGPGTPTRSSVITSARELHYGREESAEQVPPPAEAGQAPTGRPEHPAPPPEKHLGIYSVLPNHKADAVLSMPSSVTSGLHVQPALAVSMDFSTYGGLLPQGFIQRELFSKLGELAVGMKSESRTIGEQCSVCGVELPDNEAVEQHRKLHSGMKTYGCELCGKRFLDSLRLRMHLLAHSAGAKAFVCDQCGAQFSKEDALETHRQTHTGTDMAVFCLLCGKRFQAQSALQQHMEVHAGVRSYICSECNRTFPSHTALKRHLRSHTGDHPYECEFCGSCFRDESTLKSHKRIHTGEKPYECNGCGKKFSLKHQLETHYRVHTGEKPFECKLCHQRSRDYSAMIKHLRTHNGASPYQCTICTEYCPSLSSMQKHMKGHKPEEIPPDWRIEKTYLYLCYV

[2] = molecular target: T2, PLZF protein derivative consisting only of a region of Zn1 to Zn6 (UniProt Q05516); experiment: as above
T2 sequence (looked up): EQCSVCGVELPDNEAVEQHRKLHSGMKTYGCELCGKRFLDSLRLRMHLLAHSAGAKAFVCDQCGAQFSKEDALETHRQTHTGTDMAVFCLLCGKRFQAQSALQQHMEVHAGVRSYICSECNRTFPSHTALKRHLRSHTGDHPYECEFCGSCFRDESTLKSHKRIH

[3] = molecular target: T3, PLZF protein derivative consisting only of a region of Zn1 to Zn9 (UniProt Q05516); experiment: as above
T3 sequence (looked up): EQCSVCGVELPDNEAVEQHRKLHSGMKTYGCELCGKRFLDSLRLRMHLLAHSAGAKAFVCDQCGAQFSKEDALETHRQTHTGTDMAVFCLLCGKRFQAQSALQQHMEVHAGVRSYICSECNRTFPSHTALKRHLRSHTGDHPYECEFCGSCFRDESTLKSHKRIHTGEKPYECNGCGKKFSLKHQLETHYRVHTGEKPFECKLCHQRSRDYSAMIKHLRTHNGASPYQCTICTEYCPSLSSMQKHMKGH

[4] = molecular target: T4, PLZF protein derivative consisting only of a region of Zn4 to Zn9 (UniProt Q05516); experiment: as above
T4 sequence (looked up): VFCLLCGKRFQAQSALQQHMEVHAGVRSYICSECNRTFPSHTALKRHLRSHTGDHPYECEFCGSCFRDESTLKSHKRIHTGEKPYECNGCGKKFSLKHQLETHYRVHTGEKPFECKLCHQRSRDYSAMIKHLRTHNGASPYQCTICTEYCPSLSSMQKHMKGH

[5] = molecular target: T5, PLZF protein derivative consisting only of a region of Zn5 to Zn8 (UniProt Q05516); experiment: as above
T5 sequence (looked up): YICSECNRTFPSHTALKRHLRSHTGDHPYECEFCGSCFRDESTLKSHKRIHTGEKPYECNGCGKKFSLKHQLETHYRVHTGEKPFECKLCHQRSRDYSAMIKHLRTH

tagged PLZF protein = molecular target: T6, tagged PLZF protein (UniProt Q05516); experiment: cells transfected with tagged PLZF, after processing of HB-EGF; method not described
T6 sequence (looked up): T1 sequence (looked up)

Measured: binding

GST binding HB-EGF remaining fragment (from UniProt P08515 1-218; Q99075 185-208)
not listed: tagged PLZF protein
binds: all other assays above

remaining fragment of HB-EGF produced in cells by processing (from UniProt Q99075 149-208)
binds: tagged PLZF protein
